In PubChem BioAssay AID504327 (National Center for Advancing Translational Sciences (NCATS), 2011):
Hit rate of the full screen: of about 390,000 compounds, about 820 (0.21%) were called active. The inconclusive results got no clear call from the source; some entries with a clear call stand among them for comparison. Calls come from the whole dose curve; as a rule, active = well fitted inhibition curve with a large enough effect; inconclusive = small, poorly fitted or top-dose-only effect, or another doubt; inactive = no such curve, though single readings can be large or run the other way. A potency beside an inconclusive call is a rough fit, not a confirmed value. Where a structure was tested more than once in an assay, its records may differ in their call.

Amino acid sequences for entries named in this document (tags omitted).
UniProt Q92830, whole entry, looked up: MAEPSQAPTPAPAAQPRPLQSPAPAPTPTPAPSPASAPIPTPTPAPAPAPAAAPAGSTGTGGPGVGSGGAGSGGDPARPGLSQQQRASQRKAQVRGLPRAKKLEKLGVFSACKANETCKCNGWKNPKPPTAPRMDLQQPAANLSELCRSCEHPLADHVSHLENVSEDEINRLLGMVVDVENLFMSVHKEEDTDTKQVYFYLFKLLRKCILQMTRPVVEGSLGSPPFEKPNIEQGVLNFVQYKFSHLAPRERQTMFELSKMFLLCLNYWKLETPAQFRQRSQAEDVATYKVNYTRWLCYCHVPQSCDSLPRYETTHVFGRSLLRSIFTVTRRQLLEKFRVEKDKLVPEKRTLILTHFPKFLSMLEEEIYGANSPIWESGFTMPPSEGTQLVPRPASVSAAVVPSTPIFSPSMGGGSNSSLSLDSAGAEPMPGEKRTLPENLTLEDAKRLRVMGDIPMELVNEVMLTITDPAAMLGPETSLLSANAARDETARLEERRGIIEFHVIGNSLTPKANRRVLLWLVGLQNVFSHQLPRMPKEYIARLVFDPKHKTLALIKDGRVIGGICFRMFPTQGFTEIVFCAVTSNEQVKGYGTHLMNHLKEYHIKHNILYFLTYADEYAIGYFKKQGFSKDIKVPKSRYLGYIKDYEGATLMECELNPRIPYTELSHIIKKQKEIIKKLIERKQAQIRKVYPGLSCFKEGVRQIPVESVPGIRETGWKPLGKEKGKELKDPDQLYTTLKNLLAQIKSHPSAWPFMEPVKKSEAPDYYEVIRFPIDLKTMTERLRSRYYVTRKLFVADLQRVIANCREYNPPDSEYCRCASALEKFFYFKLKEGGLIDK

What follows are compounds tested against Histone acetyltransferase KAT2A (Homo sapiens) (UniProt Q92830) (assay: qHTS Assay for Inhibitors of GCN5L2). Details: GCN5L2 HAT assay, ThioGlo1 CoA-SH fluorescence; activity change, negative = inhibition: at 58.9 µM (top of the series) unless noted.
In short: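 ThioGlo1-coupled HAT assay: 20nM GCN5L2, 70uM acetyl-CoA, 75uM H3(1-25) peptide, pH 7.5. Fluorescence read at 340/540nm at start and after 20 min at room temperature.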
% is set by controls: 0 for no effect and ±100 for the full control effect; potency is the fitted concentration of half-maximal effect.

Which Potency does the source give for `Nc1ncnc2c1ncn2[C@@H]1O[C@H](COP(=O)(O)OP(=O)(O)O)[C@@H](O)[C@H]1O` here?
Its Potency is “inactive”.

Which Potency does the source give for `O=C(O)CCC(=O)N1CCc2cc(S(=O)(=O)N3CCCCC3)ccc21` here?
The Potency was inconclusive: 7.08 µM [inhibitor, single point].

Which “activity change, negative = inhibition” value does the source give for `COc1ccc(C2CC(C)=C(C#N)S(=O)(=O)C2C#N)cc1` (stereo not drawn) here?
Its value is inactive: 17.1%.

How did the Potency turn out when `COc1ccc(N=C2S/C(=C\c3ccc(OC(C)C(=O)O)c(OC)c3)C(=O)N2CCc2c[nH]c3ccccc23)cc1` (stereo not drawn) was run?
The Potency was inconclusive: 31.6 µM [inhibitor, partial curve].

`Cc1c(Br)c([N+](=O)[O-])nn1C(C)C(=O)Nc1c(C)n(C)n(-c2ccccc2)c1=O` (stereo not drawn) was tested. Which Potency did it give?
Its Potency is inconclusive: 31.6 µM [inhibitor, single point].

With `Cc1ccc(-n2c(O)c(/C=N/n3cnnc3)c3ccccc3c2=O)cc1` as the compound, how does the Potency read?
Its Potency is inconclusive: 25.1 µM [inhibitor, partial curve, poor fit].

Which Potency does the source give for `O=C(O)C(Cc1ccccc1)N1C(=O)/C(=C/c2cccc3ccccc23)SC1=S` (stereo not drawn) here?
Its Potency is inconclusive: 39.8 µM [inhibitor, single point].

For `Cc1cc(C(=O)CSc2nc(N)cc(N)n2)c(C)n1CCc1ccc(F)cc1`, which Potency is on record?
The Potency was inconclusive: 1 µM [inhibitor, partial curve].

`C[C@@H]1COC(=O)[C@@H](Cc2ccc(F)cc2)C/C=C\C[C@@H](CC(=O)NCCO)C(=O)N1` was tested. Which “activity change, negative = inhibition” value did it give?
Its value is inactive: -4.29%.

For `Cc1nn2c(NCc3ccccn3)c3c(nc2c1-c1ccccc1)CCC3`, which “activity change, negative = inhibition” value is on record?
Its value is inactive: -5.14%.

`Cc1ccc(C)c(NC(=O)NC2CCCCCCC2)c1` was tested. Which Potency did it give?
Its Potency is inconclusive: 1.12 µM [inhibitor, full curve, poor fit].

`COc1ccc(CC(=S)N2CCOCC2)cc1OC` was tested. Which “activity change, negative = inhibition” value did it give?
Its value is inactive: -1.64%.

`CCOC(=O)c1c(C)[nH]c(N=Nc2ccccc2)c1C` was tested. Which “activity change, negative = inhibition” value did it give?
Its value is inactive: -12.8%.

With `Cc1ccc(/C=C2\OC(=O)c3ccccc32)cc1` as the compound, how does the Potency read?
Its Potency is inconclusive: 0.1 µM [inhibitor, partial curve, poor fit].

`Cc1ccc(NC(=O)c2ccc(Cl)c(NC(=O)c3cccs3)c2)cc1` was tested. Which Potency did it give?
Its Potency is inconclusive: 11.2 µM [inhibitor, partial curve, poor fit].

With `CC(C)ON([C@@H](C(=O)NO)C(C)C)S(=O)(=O)c1ccc(-c2ccccc2)cc1` as the compound, how does the Potency read?
The Potency was inconclusive: 39.8 µM [inhibitor, single point].

For `CN(C(=O)CSc1nnc(-c2ccncc2)n1Cc1ccccc1)C1CCS(=O)(=O)C1` (stereo not drawn), which “activity change, negative = inhibition” value is on record?
The value was inactive: 4.07%.

How did the Potency turn out when `COc1ccc(-c2csc(N(CCCN(C)C)C(=O)c3ccc(Br)cc3)n2)cc1` was run?
Its Potency is inconclusive: 22.4 µM [inhibitor, partial curve].

`O=C(Nc1c(C(=O)N2CCOCC2)oc2ccccc12)c1cccc([N+](=O)[O-])c1` was tested. Which Potency did it give?
The Potency was inconclusive: 1 µM [inhibitor, full curve, poor fit].

For `CCn1c2ccc(C)cc2c2nnc(NN)nc21`, which “activity change, negative = inhibition” value is on record?
Its value is inactive: 2.74%.

For `Oc1ccc(-c2nc3ccccn3c2NCc2ccco2)cc1`, which Potency is on record?
Its Potency is inconclusive: 39.8 µM [inhibitor, single point].

With `CC(CC(=O)O)CC(=O)Nc1nncs1` (stereo not drawn) as the compound, how does the Potency read?
The Potency was inconclusive: 8.91 µM [inhibitor, partial curve, poor fit].

For `Cc1cc(S(=O)(=O)N2CCCC2)ccc1OCC(=O)N1CCC(C(N)=O)CC1`, which Potency is on record?
The Potency was inconclusive: 39.8 µM [inhibitor, single point].

With `CCc1nc(SCC(=O)c2ccccc2)c2ccccc2n1` as the compound, how does the “activity change, negative = inhibition” value read?
Its value is inactive: -3.25%.

For `Oc1ccc(COCc2ccccc2)c2cccnc12`, which Potency is on record?
The Potency was active: 25.1 µM.

For `COc1cccc(-c2cncnc2NCc2ccccc2)c1`, which “activity change, negative = inhibition” value is on record?
Its value is inactive: -5.83%.

With `[O-]/C(=C(\C(=S)NCc1ccc2c(c1)OCO2)[n+]1ccccc1)c1ccc(Cl)s1` as the compound, how does the “activity change, negative = inhibition” value read?
Its value is inactive: -11.5%.

`Cc1cc(C)c(C#N)c(N)n1` was tested. Which “activity change, negative = inhibition” value did it give?
The value was inactive: -4.12%.

With `O=C1c2[nH]nc(-c3ccccc3O)c2C(c2ccc(Cl)cc2)N1Cc1ccco1` (stereo not drawn) as the compound, how does the “activity change, negative = inhibition” value read?
The value was inactive: -3.43%.

How did the “activity change, negative = inhibition” value turn out when `COc1nc(Nc2ccccc2F)nc(OC)n1` was run?
Its value is inactive: 2.91%.

With `COc1cccc(NC(=O)CSC2=Nc3ccccc3C3=NC(CC(=O)NCCc4ccccc4)C(=O)N23)c1` (stereo not drawn) as the compound, how does the “activity change, negative = inhibition” value read?
The value was inactive: 0.198%.

Which Potency does the source give for `Cc1cc(C)c2cc(C(=O)Nc3ccc4c(c3)OCO4)[nH]c2c1` here?
The Potency was inconclusive: 39.8 µM [inhibitor, single point].

For `CC(C)Oc1cccc(C(=O)NC(=S)Nc2cccc(C(F)(F)F)c2)c1`, which Potency is on record?
The Potency was inconclusive: 4.47 µM [inhibitor, partial curve, poor fit].

Which Potency does the source give for `COC(=O)c1ccc(N2CCOCC2)c(NC(=O)c2cccnc2)c1` here?
The Potency was inconclusive: 0.708 µM [inhibitor, single point].

With `CCCCOc1ccc(/C=N/NC(=O)c2csc(C)c2C)cc1` as the compound, how does the Potency read?
Its Potency is inconclusive: 31.6 µM [inhibitor, single point].

For `CC(=O)Nc1nc2cc(C(N)=O)ccc2s1`, which “activity change, negative = inhibition” value is on record?
Its value is inactive: -4.4%.

With `CC(C)C(=O)N(c1ccc2oc(=O)sc2c1)S(=O)(=O)c1cccs1` as the compound, how does the Potency read?
The Potency was inconclusive: 39.8 µM [inhibitor, single point].

With `O=C(COc1ccc2ccccc2c1Br)N1CCCC1` as the compound, how does the Potency read?
The Potency was inconclusive: 31.6 µM [inhibitor, partial curve, poor fit].

How did the Potency turn out when `COc1ccc(CNC(=O)C2CCCN(S(=O)(=O)c3ccccc3)C2)cc1` (stereo not drawn) was run?
Its Potency is inconclusive: 3.16 µM [inhibitor, single point].

Which “activity change, negative = inhibition” value does the source give for `Cc1cc(C)c(CSc2nnc(C)n3c2cc2occc23)c(C)c1` here?
The value was inactive: -7.04%.

`O=C(NC(=S)Nc1cc(-c2nc3ccccc3[nH]2)ccc1Cl)c1ccc2c(c1)OCO2` was tested. Which “activity change, negative = inhibition” value did it give?
The value was inactive: -13.2%.

`O=C(/C=C/c1ccccc1Cl)c1ccc(O)cc1` was tested. Which “activity change, negative = inhibition” value did it give?
The value was inactive: -0.931%.

With `Cc1ccc2oc(/N=C(\N)NC(=O)C3CC3)nc2c1` as the compound, how does the Potency read?
Its Potency is inconclusive: 7.08 µM [inhibitor, single point].

With `CCC(NC(=O)CCc1c(C)c2cc3c(C)c(C)oc3cc2oc1=O)C(=O)N[C@@H](Cc1ccccc1)C(=O)O` (stereo partly drawn) as the compound, how does the “activity change, negative = inhibition” value read?
Its value is inactive: -14.4%.

With `O=C(N=C1SC2CS(=O)(=O)CC2N1c1cc(Cl)ccc1Cl)C1CCCO1` (stereo not drawn) as the compound, how does the “activity change, negative = inhibition” value read?
Its value is inactive: -14.1%.

For `CCCc1nn2c(=O)cc(COc3cccc(NC(=O)c4ccco4)c3)nc2s1`, which “activity change, negative = inhibition” value is on record?
Its value is inactive: -4.85%.

With `CCOc1ccc(C(=O)Nc2ccccc2N2CCCC2)cc1` as the compound, how does the Potency read?
Its Potency is inconclusive: 1.26 µM [inhibitor, full curve, poor fit].

With `COc1ccc(C(=O)COC(=O)c2ccccc2O)c(OC)c1` as the compound, how does the Potency read?
Its Potency is inconclusive: 14.1 µM [inhibitor, partial curve].
